Reference: publication PMC12848939
No constants are given. Whether binding was seen depends on the method and setting. In cells and extracts the contact can be indirect. Here binding means that the protein was enriched with, or labelled near, the bait; the list need not be complete. For some assays here: Tags and fused reporters may be left off the sequences shown. Blank lines part the entries; values can stand above or below the molecule they belong to.

Sequences of proteins named here, by UniProt entry; tags and fusion partners are left off.
UniProt Q12499: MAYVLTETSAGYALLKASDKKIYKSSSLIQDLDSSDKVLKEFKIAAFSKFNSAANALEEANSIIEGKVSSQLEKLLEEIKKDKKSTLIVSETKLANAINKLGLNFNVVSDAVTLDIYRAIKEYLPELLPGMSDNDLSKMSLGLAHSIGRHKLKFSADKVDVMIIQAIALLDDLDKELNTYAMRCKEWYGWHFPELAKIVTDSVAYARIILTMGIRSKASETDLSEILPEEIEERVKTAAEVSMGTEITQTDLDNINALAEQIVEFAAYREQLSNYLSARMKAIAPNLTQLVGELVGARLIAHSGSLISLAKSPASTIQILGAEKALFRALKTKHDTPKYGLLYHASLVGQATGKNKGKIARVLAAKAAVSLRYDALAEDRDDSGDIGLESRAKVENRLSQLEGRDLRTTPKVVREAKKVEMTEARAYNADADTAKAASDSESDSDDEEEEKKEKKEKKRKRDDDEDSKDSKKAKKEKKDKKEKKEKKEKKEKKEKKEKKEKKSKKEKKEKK
UniProt Q05022: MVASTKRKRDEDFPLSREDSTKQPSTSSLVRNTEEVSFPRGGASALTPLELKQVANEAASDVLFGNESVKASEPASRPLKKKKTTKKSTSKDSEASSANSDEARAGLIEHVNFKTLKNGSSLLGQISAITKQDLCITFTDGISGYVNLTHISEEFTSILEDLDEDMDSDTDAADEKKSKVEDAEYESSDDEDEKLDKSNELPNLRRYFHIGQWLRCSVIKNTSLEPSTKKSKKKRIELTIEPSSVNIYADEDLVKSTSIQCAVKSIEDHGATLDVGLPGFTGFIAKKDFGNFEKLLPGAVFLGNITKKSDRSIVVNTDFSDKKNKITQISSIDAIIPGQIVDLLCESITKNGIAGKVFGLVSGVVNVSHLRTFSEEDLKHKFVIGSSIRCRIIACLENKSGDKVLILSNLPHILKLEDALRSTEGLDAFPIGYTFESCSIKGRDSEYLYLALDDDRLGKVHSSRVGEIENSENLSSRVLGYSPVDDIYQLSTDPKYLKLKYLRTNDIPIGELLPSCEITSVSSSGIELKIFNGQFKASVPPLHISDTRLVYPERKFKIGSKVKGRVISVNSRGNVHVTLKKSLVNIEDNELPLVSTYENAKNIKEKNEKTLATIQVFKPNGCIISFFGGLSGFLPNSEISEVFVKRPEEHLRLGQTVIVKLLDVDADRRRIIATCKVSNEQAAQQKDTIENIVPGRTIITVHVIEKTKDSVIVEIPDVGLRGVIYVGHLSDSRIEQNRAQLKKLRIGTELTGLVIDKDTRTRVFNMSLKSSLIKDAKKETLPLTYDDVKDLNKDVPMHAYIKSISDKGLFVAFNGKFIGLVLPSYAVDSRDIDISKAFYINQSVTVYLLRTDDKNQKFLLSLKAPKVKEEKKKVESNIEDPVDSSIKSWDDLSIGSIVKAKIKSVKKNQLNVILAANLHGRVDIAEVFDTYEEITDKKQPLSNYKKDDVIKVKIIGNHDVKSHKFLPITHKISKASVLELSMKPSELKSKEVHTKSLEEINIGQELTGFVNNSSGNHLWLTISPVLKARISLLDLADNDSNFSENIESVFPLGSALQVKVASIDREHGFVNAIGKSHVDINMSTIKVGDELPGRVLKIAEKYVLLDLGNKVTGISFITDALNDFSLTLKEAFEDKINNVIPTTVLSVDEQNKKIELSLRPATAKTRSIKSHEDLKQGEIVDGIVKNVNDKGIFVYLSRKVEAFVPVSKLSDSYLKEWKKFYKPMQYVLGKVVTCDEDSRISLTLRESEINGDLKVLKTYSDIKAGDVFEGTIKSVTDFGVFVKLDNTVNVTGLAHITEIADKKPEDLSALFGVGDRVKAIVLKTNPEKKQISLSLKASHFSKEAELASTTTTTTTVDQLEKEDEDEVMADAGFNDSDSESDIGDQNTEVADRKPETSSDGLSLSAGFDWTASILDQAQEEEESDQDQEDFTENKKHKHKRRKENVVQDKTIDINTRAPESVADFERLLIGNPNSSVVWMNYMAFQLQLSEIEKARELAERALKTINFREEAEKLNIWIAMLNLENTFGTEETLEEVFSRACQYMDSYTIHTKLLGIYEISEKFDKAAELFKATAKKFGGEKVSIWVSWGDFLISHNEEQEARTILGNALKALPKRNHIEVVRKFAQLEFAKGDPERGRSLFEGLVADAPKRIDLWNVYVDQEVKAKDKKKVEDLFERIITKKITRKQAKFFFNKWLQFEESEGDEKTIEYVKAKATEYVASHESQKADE

How the values were obtained:
[1] = molecular target: Nop58-FLAG (S. cerevisiae) (UniProt Q12499); test: affinity purification with mass spectrometry; split-tag two-step purification: first Sni445-TAP on IgG Sepharose with TEV elution, then Nop58-FLAG on anti-FLAG M2 agarose with 3x Flag peptide elution; SDS-PAGE, Coomassie, bands identified by MS
[2] = molecular target: T1, Sni445-TAP (S. cerevisiae) (UniProt P53952); test: as above
T1 sequence: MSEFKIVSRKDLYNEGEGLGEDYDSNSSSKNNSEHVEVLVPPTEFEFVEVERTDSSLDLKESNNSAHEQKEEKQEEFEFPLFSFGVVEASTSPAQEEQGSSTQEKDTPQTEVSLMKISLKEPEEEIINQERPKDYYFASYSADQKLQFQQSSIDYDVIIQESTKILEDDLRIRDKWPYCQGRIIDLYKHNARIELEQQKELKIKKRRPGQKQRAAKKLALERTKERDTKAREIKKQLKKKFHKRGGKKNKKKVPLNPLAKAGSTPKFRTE

[3] = molecular target: T2, Sni445-FLAG (S. cerevisiae) (UniProt P53952); test: affinity purification with mass spectrometry; one-step FLAG purification of Sni445-FLAG from yeast lysate (Anti-FLAG M2 Affinity Gel, FLAG-peptide elution; 50 mM Tris-HCl pH 7.5, 100 mM NaCl, 1.5 mM MgCl2, 0.075% NP-40); label-free MS, three replicates
T2 sequence: T1 sequence

[4] = molecular target: T3, Sni445-TurboID (S. cerevisiae) (UniProt P53952); test: proximity labelling; TurboID: Sni445-TurboID expressed from the CUP1 promoter in yeast; biotinylated proteins purified on streptavidin beads and identified by MS; enrichment against GFP-TurboID and NLS-GFP-TurboID controls
T3 sequence: T1 sequence

Molecule: Nop58-FLAG (from UniProt Q12499 1-511)
binding [2]: binds

B3: Ctr9 (protein, UniProt P89105 1-1077)
chain: MTNAMKVEGYPSMEWPTSLDIPLKASEELVGIDLETDLPDDPTDLKTLLVEENSEKEHWLTIALAYCNHGKTNEGIKLIEMALDVFQNSERASLHTFLTWAHLNLAKGQSLSVETKEHELTQAELNLKDAIGFDPTWIGNMLATVELYYQRGHYDKALETSDLFVKSIHAEDHRSGRQSKPNCLFLLLRAKLLYQKKNYMASLKIFQELLVINPVLQPDPRIGIGLCFWQLKDSKMAIKSWQRALQLNPKNTSASILVLLGEFRESFTNSTNDKTFKEAFTKALSDLNNIFSENQHNPVLLTLLQTYYYFKGDYQTVLDIYHHRILKMSPMIAKIVLSESSFWCGRAHYALGDYRKSFIMFQESLKKNEDNLLAKLGLGQTQIKNNLLEESIITFENLYKTNESLQELNYILGMLYAGKAFDAKTAKNTSAKEQSNLNEKALKYLERYLKLTLATKNQLVISRAYLVISQLYELQNQYKTSLDYLSKALEEMEFIKKEIPLEVLNNLACYHFINGDFIKADDLFKQAKAKVSDKDESVNITLEYNIARTNEKNDCEKSESIYSQVTSLHPAYIAARIRNLYLKFAQSKIEDSDMSTEMNKLLDLNKSDLEIRSFYGWYLKNSKERKNNEKSTTHNKETLVKYNSHDAYALISLANLYVTIARDGKKSRNPKEQEKSKHSYLKAIQLYQKVLQVDPFNIFAAQGLAIIFAESKRLGPALEILRKVRDSLDNEDVQLNLAHCYLEMREYGKAIENYELVLKKFDNEKTRPHILNLLGRAWYARAIKERSVNFYQKALENAKTALDLFVKESSKSKFIHSVKFNIALLHFQIAETLRRSNPKFRTVQQIKDSLEGLKEGLELFRELNDLKEFNMIPKEELEQRIQLGETTMKSALERSLNEQEEFEKEQSAKIDEARKILEENELKEQGWMKQEEEARRLKLEKQAEEYRKLQDEAQKLIQEREAMAISEHNVKDDSDLSDKDNEYDEEKPRQKRKRSTKTKNSGESKRRKAAKKTLSDSDEDDDDVVKKPSHNKGKKSQLSNEFIEDSDEEEAQMSGSEQNKNDDNDENNDNDDNDGLF
binding [3]: binds

B4: Leo1 (protein, UniProt P38439 1-464)
chain: MSSESPQDQPQKEQISNNVGVTTNSTSNEETSRSQDDNVKEVNGNDDTKEEEQEEDAELDDLFGDDNDDDDDDDVKKSETEKSDSDSDEDDEGENINHRSRHRESLGLDDDEAEEQAMYTRKFYGEDANNFSDQDETTHTFKEENVELVRHIIPSKANVNETASHNEIFYARIPNFLTIDPIPFDPPSFEAKVNERASNSASREDQLDDRLIDENTVRWRYSRDKDQHVFKESNTQIVQWSDGTYSLKVGEECTDILVNDTSNTFLTVSHDQQELIQCYEGGEIKKTLMFIPTSTNSKIHQKLSKAVIRRNQRQSKGPGTYIVSMDPEVEKKELERKQSQILRDRRRRQLKEKEKQESPDAAFETGFRKQNSPTTYGASRRNEYEEDDFLVDDDEEEEAAFDDEEDDNEEEEEEEDADEENASRLRNLKREGAAMYREEEEEEKDRSETKRRRVAVIEDDEDED
binding [3]: binds

B5: Dhr2 (enzyme, UniProt P36009 1-735)
chain: MAANSNSRVASNHTSKKQKVRRNIHPFTNNTRIKRASKIVKFNDSGEGDHVSDQRSNKENVLTYKSLKSRASDLLKMRETLPVYQHKREIMSYIESNPVTVLIGETGSGKSTQIPQFVLEKLYDTKKHGSIAVTQPRRVAAINLATRVAQEHGCKLGEQVGYSVRFDNTTTTRTRLKYLTDGMLLRELMMNSDLREYSVIVIDEAHERTVLTDLILGFLKSLIQGPRPDLRIIVMSATLQAEKFSEFFNNAPILFVEGRKFDVKQYYLKAPTDDIVDAVIRCCIQINQGEELGDILCFLPGQEEIDKAVTIMEKIAKYVSDEAPVPLIVPYPLYAALPAVQQSLVFAPIKGFKRKVVFSTNIAETSVTISGVKFVVDSGLRKVKVWRHQLGLATLLTVPISQASAMQRSGRAGRESEGKSFRLYCESDYVKLPKQSEPEIARSDVTSPVLMLKRYGVDDLLNWTWFENPGKEAIVMGLQELYELGALDTRGKITKRGQQMALLPLQPHLSSVLIKASEVGCLSQVIDIVSCLSVENLLLNPSPEERDEVNERRLSLCNAGKRYGDLIMLKELFDIYFYELGKSQDASSERNDWCKGLCISIRGFKNVIRVRDQLRVYCKRLFSSISEEDEESKKIGEDGELISKILKCFLTGFIKNTAIGMPDRSYRTVSTGEPISIHPSSMLFMNKSCPGIMYTEYVFTTKGYARNVSRIELSWLQEVVTNAAAVAKQKVSDSK
binding [4]: binds

B10: Erb1 (protein, UniProt Q04660 1-807)
chain: MMAKNNKTTEAKMSKKRAASEESDVEEDEDKLLSVDGLIDAEASESDEDDDEYESAVEEKESSSDKEAQDDSDDDSDAELNKLLAEEEGDGEEDYDSSEFSDDTTSLTDRLSGVKLQTIVDPNIYSKYADGSDRIIKPEINPVYDSDDSDAETQNTIGNIPLSAYDEMPHIGYDINGKRIMRPAKGSALDQLLDSIELPEGWTGLLDKNSGSSLNLTKEELELISKIQRNEQTDDSINPYEPLIDWFTRHEEVMPLTAVPEPKRRFVPSKNEAKRVMKIVRAIREGRIIPPKKLKEMKEKEKIENYQYDLWGDSTETNDHVMHLRAPKLPPPTNEESYNPPEEYLLSPEEKEAWENTEYSERERNFIPQKYSALRKVPGYGESIRERFERSLDLYLAPRVRKNKLNIDPNSLIPELPSPKDLRPFPIRCSTIYAGHKGKVRTLSIDPSGLWLATGSDDGTVRVWEILTGREVYRTTLIDDEENPDYHIECIEWNPDANNGILAVAVGENIHLIVPPIFGYDIENNGKTKIEDGFGYDTFGTVKKSNLEVNENGDGDEDGENESAKNAVKKQVAQWNKPSQKQLEKDICITISCKKTVKKLSWHRKGDYFVTVQPDSGNTSVLIHQVSKHLTQSPFKKSKGIIMDAKFHPFKPQLFVCSQRYVRIYDLSQQILVKKLLPGARWLSKIDIHPRGDNLIASSFDKRVLWHDLDLASTPYKTLRYHEKAVRSVNFHKKLPLFSSAADDGTIHVFHATVYDDMMKNPMIVPLKKLTGHKVINSLGVLDAIWHPREAWLFSAGADNTARLWTT
binding [4]: binds

Other lines, results leading:

binding [1]: binds
binding [2]: binds
Molecule: Rrp5 (from UniProt Q05022 1-1729)

binding [3]: binds
Molecule: Rtf1 (from UniProt P53064 1-558)

binding [3]: binds
B1: Rnh202 (protein, UniProt Q05635 1-350)
chain: MTVSNIGGEERLIILPDDYETSKTINTFTLPPPSNITSKPRIELFENINGKLYEIRSFQFGKGPSYSHEEDLANDKYHYTKENHPIKSTFIVNTSDPTDGYVFNSSKIHFCSLYDIAFSLIGFYYRNSVSADEQDYSNSSDTGENQKSNSKTNEKFLTVRDYHDFLTDNHDKNWENISLSRLKSGLAKVSETIEEAGDVYYKITSAMITQFLLGKVSKIVENFPPSIPTLKNAPTEIKQCYKVVMATNLLVSLIPRAAYHNLLTFSPTMDSGCLNPDIKASFIELENYETTNELQNAERELLMKSAMNVGLNSNGRVSLPVKKVTKKIVQNKKPKVAIGKGAIDGFFKRK

binding [4]: binds
B2: Nsa2 (protein, UniProt P40078 1-261)
chain: MPQNDYIERHIKQHGKRLDHEERKRKREARESHKISERAQKLTGWKGKQFAKKRYAEKVSMRKKIKAHEQSKVKGSSKPLDTDGDALPTYLLDREQNNTAKAISSSIKQKRLEKADKFSVPLPKVRGISEEEMFKVIKTGKSRSKSWKRMITKHTFVGEGFTRRPVKMERIIRPSALRQKKANVTHPELGVTVFLPILAVKKNPQSPMYTQLGVLTKGTIIEVNVSELGMVTAGGKVVWGKYAQVTNEPDRDGCVNAVLLV

binding [3]: binds
B6: Rnh203 (protein, UniProt Q12338 1-110)
chain: MTKDAVNLDAYTVSFMPFYTEYQGPTEEFKDYKFEDTIYFRGKELKREKSATPSSSDNTTSNTFSNGAILSGNTITGKIVSVNNYEREGTDRNELARLQELISLIDVINQ

binding [4]: binds
B7: Rrp17 (protein, UniProt Q04031 1-235)
chain: MAVHTNRQILTRGKNYATKQSKKFGTDEVTFDKDSRLDYLTGFHKRKLQRQKKAQEFIKEQERLRKIEERQKIRQERKEVMEEQLKTFKESLNLEAEIEDAKNDKTEDLQVESDESWHGFDSDKDDGDNDNNESSVKPILKKGAITEIYDDSTTVELETLEPNDNFEYLAQLNNVKLEKAEKVLKQSINRATKYAKFLGVDEKQKKKPRVKKFRYLTKNERRINQRKANDNKRRR

binding [4]: binds
B8: Ssf1 (protein, UniProt P38789 1-453)
chain: MAKRRQKKRTHAQLTPEQEQGIPKSMVIRVGQTSLANHSLNQLVKDFRQIMQPHTAIKLKERKSNKLKDFVVMCGPLGVTHLFMFTQSEKTGNVSLKIARTPQGPTVTFQVLDYSLGRDIKKFLKRPKSLNNDDVLNPPLLVLNGFSTSKRSGEDDQDVNVEKVIVSMFQNIFPPLNPARTSLNSIKRVFMINKDRETGEISMRHYFIDIREVEISRNLKRLYKAKNNLSKTVPNLHRKEDISSLILDHDLGAYTSESEIEDDAIVRVVDNQDVKAKHSQSLKSQRTPVEKKDNKEREKETEEEDVEMEEPKPSENLQPTPRKKAIKLTELGPRLTLKLVKIEEGICSGKVLHHEFVQKSSEEIKALEKRHAAKMRLKEQRKKEQEENIAKKKAVKDAKKQRKLERRKARAAEGGEGQGKDDAMSDDESSSSDSEHYGSVPEDLDSDLFSEVE

binding [4]: binds
B9: Rio1 (enzyme, UniProt Q12196 1-484)
chain: MSLEDKFDSLSVSQGASDHINNQLLEKYSHKIKTDELSFSRAKTSKDKANRATVENVLDPRTMRFLKSMVTRGVIADLNGCLSTGKEANVYHAFAGTGKAPVIDEETGQYEVLETDGSRAEYAIKIYKTSILVFKDRERYVDGEFRFRNSRSQHNPRKMIKIWAEKEFRNLKRIYQSGVIPAPKPIEVKNNVLVMEFLSRGNGFASPKLKDYPYKNRDEIFHYYHTMVAYMRLLYQVCRLVHADLSEYNTIVHDDKLYMIDVSQSVEPEHPMSLDFLRMDIKNVNLYFEKMGISIFPERVIFQFVISETLEKFKGDYNNISALVAYIASNLPIKSTEQDEAEDEIFRSLHLVRSLGGLEERDFDRYTDGKFDLLKSLIAHDNERNFAASEQFEFDNADHECSSGTEEFSDDEEDGSSGSEEDDEEEGEYYDDDEPKVLKGKKHEDKDLKKLRKQEAKDAKREKRKTKVKKHIKKKLVKKTKSKK
